# Measurements reported in PubChem BioAssay AID1259415 (National Center for Advancing Translational Sciences (NCATS), 2018).
# Where “and” joins values, the source holds several entries; their conditions need not be identical. Identical values can stand only once. In all, about 410,000 compounds went through this assay and about 18,000 (4.4%) were called active. The inconclusive results got no clear call from the source; some entries with a clear call stand among them for comparison. Cut-off read from the data, not from the text of the source: active = activity change below about -60%; inconclusive = no clear call, values can overlap the other calls; inactive = above about -39%.
# Assay: qHTS Assay for inhibitors of the human cytomegalovirus (HCMV)
# Settings: HFF cells, HCMV-luciferase reporter, 72 h; at 57.5 µM; stronger effect = lower value
# Outline: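 Two compound doses tested in HFFs infected with HCMV-luciferase, MOI 1 PFU/cell, 72 h at 37C. Lysate luminescence read with OneGlo; data normalized against buffer-only and 10uM Salinomycin inhibitor controls.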
# % is set by controls: 0 for no effect and ±100 for the full control effect.
row,Compound,"activity change, negative = inhibition"
1,COc1ccc(-c2coc3c(C(=O)NCc4ccc(C(F)(F)F)cc4)cccc23)c(C)c1,inconclusive: -46.3%
2,Cc1cccc(CC(=O)N2CC(=O)Nc3ccc(Br)cc3C2c2ccc(F)cc2)c1 (centres undefined),inconclusive: -52.1%
3,CCc1cccc(-n2nnc(-c3nsc(NC(=O)c4cccc(OC)c4)n3)c2C)c1,inconclusive: -45.2%
4,CCC(=O)c1ccc(/C=C/c2nc3ccccc3n2C)o1,inactive: 37%
5,Cc1cc(C)n(-c2nc3ccccc3c(=O)n2OCCOc2ccccc2)n1,inconclusive: -45.2%
6,N#CC(C(=O)OC1CCCCC1)c1nc2ccccc2nc1N1CCOCC1 (centres undefined),active: -77.6%
7,Cc1cc2c(cc1S(=O)(=O)Nc1cccc(C#N)c1)OCC(=O)N2,inconclusive: 0%
8,COc1ccc(S(=O)(=O)N2c3ccccc3OCC2CC(=O)O)cc1 (centres undefined),inactive: -18.1%
9,Cc1cc(=O)c(C(=O)O)nn1-c1ccc(Cl)cc1,inactive: -5.4%
10,COc1cc(/C=C/C(=O)NCCc2ccc(S(N)(=O)=O)cc2)ccc1OCC#N,inconclusive: -42.5%
11,CC(C)NC(=O)c1ccc(N2CCOCC2)nc1,inactive: 58.8%
12,CCN(CC)c1cc(C)c2cc(NC(=O)/C=C/c3cc(OC)c(OC)c(OC)c3)ccc2n1,active: -99.8%
13,CCOC(=O)CN1C(=O)S/C(=C/c2ccc(O)c([N+](=O)[O-])c2)C1=O,inconclusive: -50.3%
14,CCC(=O)OCOc1ccc(/C=C2/CCC(CN(C)C)C2=O)cc1 (centres undefined),inconclusive: -51.7%
15,O=C(CC(CC(=O)c1ccccc1)C(=O)O)c1ccccc1,inconclusive: -47.9%
16,COc1cccc(-c2nn(-c3ccccc3)cc2C(=O)Nc2nccs2)c1,inconclusive: -58%
17,CCOC(=O)c1c(C)n(-c2ccc(OC)cc2)c2ccc(OC(=O)COc3ccccc3)cc12,inconclusive: -40.1%
18,Cc1cccc(Cl)c1OCCN1CCCC1,inactive: 15.8%
19,O=C(/C=C/c1cccc(F)c1)Nc1ccc(S(=O)(=O)N2CCOCC2)cc1,inconclusive: -58.8%
20,Nc1ccc(S(=O)(=O)NC2(C(F)(F)F)NC(=O)N(Cc3ccccc3)C2=O)cc1 (centres undefined),inactive: -15.8%
21,CN(C(=O)Cn1nc(C(=O)O)c2ccccc2c1=O)C1(C#N)CCCCC1,inactive: -4.2%

row,Compound,"activity change, negative = inhibition"
1,COc1ccc2c(c1)C(=O)N(c1ccc(C)cc1C)C(=O)C2(C)C,inconclusive: -45.8%
2,CCOc1ccccc1NC(=O)CCc1c(C)nn(-c2ccc(N3CCCCC3)nn2)c1C,inactive: -34.7% and inactive: -18.9%
3,COc1ccc(CNC(=O)CSc2ncc3c(n2)-c2ccc(Cl)cc2N(Cc2ccccc2)S3(=O)=O)cc1,inactive: 14.5%
4,CCn1c(COc2ccc(=O)n(-c3ccccc3)n2)nnc1SC,inconclusive: -51.5%
5,CCOc1cccc(-c2c(C(=O)N/N=C/c3ccc(C)o3)nnn2-c2nonc2N)c1,inconclusive: -59.2%
6,COC(=O)[C@H]1C[C@@H]1[C@H](NS(=O)(=O)c1ccc2ccccc2c1)c1ccccc1,inconclusive: -40.2%
7,Cc1ccc(S(=O)(=O)N/N=C/c2ccc(O)cc2O)cc1[N+](=O)[O-],inconclusive: -40.8%
8,COc1ccc(NC(=O)CSc2ccc(-c3ccco3)nn2)cc1,active: -65.9%
9,CCS(=O)(=O)c1nc(S(=O)(=O)c2ccc(C)cc2)c(NCCCn2ccnc2)s1,inconclusive: -46.3%
10,Cc1ccc(CSc2nnc(-c3ccncc3)o2)c(C)c1,inconclusive: -55.7%
11,COc1ccc(CNC(=S)NC2CCCC2)cc1,inconclusive: -49.4%
12,COc1ccc(OC)c(CN2C(=O)c3ccccc3C2C(=O)NCC2CCCO2)c1 (centres undefined),inconclusive: -42.8%
13,COc1cc(N2CCOCC2)ccc1/C=C1\C(=O)NC(=O)N(C2CCCCC2)C1=O,inactive: -31.4%
14,Cc1cccc(OCCNc2cc(N3CCN(C)CC3)ccc2[N+](=O)[O-])c1,inactive: 2.03%
15,COc1ccc(C(C)NCCC(c2ccc(OC(C)C)cc2)c2ccccc2OC)cc1 (centres undefined),active: -97.3%
16,CCC(=O)N1CCCc2cc(S(=O)(=O)N3CCC(C(=O)NCc4ccc(F)cc4)CC3)ccc21,inactive: -11.1%
17,COc1ccc(OC(C)C(=O)N(C)Cc2nc(-c3cccc(C)c3)no2)cc1 (centres undefined),inconclusive: -57.7%
18,COc1ccc(C)cc1NC(=O)c1cc2c(=O)n3cccc(C)c3nc2s1,inactive: -5.83%
19,COc1ccc(NC2=CC(c3ccc(OC)c(OC)c3)N(c3ccc(OC)cc3)C2=O)cc1 (centres undefined),inactive: 7.96%
20,CCOC(=O)c1[nH]c(C=O)c(C(=O)OCC)c1C,active: -95.6%
21,COc1ccc(Cl)cc1NC(=S)N1CCN(c2ccccn2)CC1,inconclusive: -41%

row,Compound,"activity change, negative = inhibition"
1,Cc1nn2c(C)c(C(=O)NC(C)c3ccccc3)cnc2c1-c1ccc(F)cc1 (centres undefined),inactive: -19.7%
2,COc1ccc(NC2=C3CCCC=C3N(c3ccc(OC)cc3)C2=O)cc1,inconclusive: -43.9%
3,CCOc1ccc(CNC(=O)C2CCCN(c3nnc(C)c4c(C)n(-c5ccccc5)nc34)C2)cc1 (centres undefined),active: -67.7% and inconclusive: -48.2%
4,CCCCN(CCCC)S(=O)(=O)c1ccc2oc(C(=O)N3CCOCC3)c(C)c2c1,inconclusive: -40.4%
5,COc1ccc(-c2cc(NC(C)=O)c3ncc(-c4cccc(C(F)(F)F)c4)n3c2)c(OC)c1,inconclusive: -44.5%
6,C/C(CC(=O)Nc1cc(C)ccn1)=N\NC(=O)c1ccc(C(C)(C)C)cc1,inactive: 5.51%
7,COc1cccc(NC(=O)CN(C)C(=O)CN2C(=O)NC(C)(c3ccc4ccccc4c3)C2=O)c1 (centres undefined),inconclusive: -41.9%
8,CC(/C=N/n1c(C2CCCCC2)n[nH]c1=S)=C\c1ccccc1,inactive: -22.8%
9,COc1ccc(Nc2nc(N)nc(CSc3nc(C)cc(C)n3)n2)cc1,inactive: -13.4%
10,CN(C(=O)CC(=O)Nc1ccc2nc3n(c(=O)c2c1)CCCCC3)c1ccccc1F,inactive: -0.675%
11,O=C(c1ccc2c(c1)N(Cc1ccc(F)cc1)C(=O)c1ccccc1S2)N1CCC2(CC1)OCCO2,inactive: -10.1%
12,CC(C)Oc1ccc(Nc2nccc3c2cc(-c2ccccc2)n3C)cc1,inconclusive: -46.4%
13,CC1=CC(C)(C)Nc2ccc(OC(=O)CN3C(=O)C4CCCCC4C3=O)cc21 (centres undefined),active: -63%
14,Cc1ccc(S(=O)(=O)N2CCN(C(=O)c3cc(S(=O)(=O)N4CCOCC4)c(Cl)cc3Cl)CC2)cc1,inconclusive: -41.9%
15,CC(C)(C)OC(=O)N1C[C@@]23C[C@H](c4cccc(F)c4)[C@@H](C[C@@H]2S1(=O)=O)O3,inactive: 5.47%
16,CC1=C(C(=O)Nc2ccccc2C)C(c2cccs2)n2nc(SCc3ccccc3)nc2N1 (centres undefined),active: -64.7%
17,COc1cc2c(cc1OC)CN(C(=O)c1ccc(S(=O)(=O)N3CCCCCC3)cc1)CC2,inconclusive: -43.9%
18,COc1ccc(-c2cc(C(F)(F)F)nc(N3CCN(c4ccc(F)cc4)CC3)n2)cc1OC,inactive: 32.4%
19,CN(CC(=O)Nc1ccc(F)c(F)c1F)C(=O)C1CCCC1,inactive: -6.43%
20,Cc1ccc(N2C(N)=C(C#N)C(c3cccnc3)C3=C2CC(C)(C)CC3=O)cc1 (centres undefined),inconclusive: -41.8%
21,O=C(c1cccs1)N1CCc2ccccc2C1,inconclusive: -53.2%

row,Compound,"activity change, negative = inhibition"
1,COc1ccc(OC)c(Nc2nc3nonc3nc2N2CCCCC2)c1,inconclusive: -49%
2,CN(C)CCCN1C(=O)c2cccc3cccc(c23)C1=O,active: -63.9%
3,C#Cc1cccc(Nc2nc(NCc3ccccc3)nc3ccsc23)c1,inconclusive: -42%
4,CCCCN1C=CC(=C2C(=O)c3ccccc3C2=O)C=C1,active: -88.1%
5,CC(C)(C)NC(=O)Nc1ccc(Br)cc1,inconclusive: -46.2%
6,CC(=O)c1ccc(NC(=O)C2CCN(c3nnc(C)c4c(C)n(-c5ccccc5)nc34)CC2)cc1,inactive: 0%
7,CC(C)(C)C1CCc2c(sc(NC(=O)c3cccc(Cl)c3)c2C(=O)NCc2ccco2)C1 (centres undefined),inactive: -19.3%
8,O=[N+]([O-])c1ccc(N2CCOCC2)c2c1no[n+]2[O-],active: -101%
9,CC(=O)Nc1ccc(C(=O)NCCCOC(C)C)cc1,inconclusive: -56.9%
10,O=C(NN=C1CCCC1)c1ccc(Cl)cc1,inconclusive: -52.1%
11,CC1CN(C(=O)COc2ccc3ccccc3c2)CC(C)O1 (centres undefined),inconclusive: -41%
12,CCN(CC)CCN1c2ccccc2Sc2ccc3ccccc3c21,inconclusive: -41.3%
13,Cc1ccc(-c2noc(CCC(=O)N(C)c3ccccc3F)n2)cc1,inactive: -27.8%
14,O=S(=O)(O)c1cc(O)ccc1O,inconclusive: -59.2%
15,COc1ccc(CCNCC(=O)Nc2ccccc2C(F)(F)F)cc1,inconclusive: -41%
16,C[C@@H]1O[C@@H](OC[C@@H]2O[C@H](Oc3c(-c4ccc(O)cc4)oc4cc(O)cc(O)c4c3=O)[C@@H](O)[C@H](O)[C@H]2O)[C@H](O)[C@H](O)[C@H]1O,inactive: -20.3%
17,Fc1ccccc1-c1nc(N2CCN(c3cccc(Cl)c3)CC2)c2ccccc2n1,inactive: 2.01%
18,O=C(COc1ccccc1)Nc1ccccc1N1CCCCC1,inconclusive: -49.3%
19,COc1ccc(CNc2oc(COc3ccccc3Cl)nc2C#N)cc1,inactive: 8.58%
20,CCN(CC)S(=O)(=O)c1cccc(-c2nnc(SCC(=O)c3cc(C)n(C)c3C)o2)c1,inconclusive: -43.7%
21,COc1cccc(C(=O)C2CCCN(Cc3cccn3-c3cccnc3)C2)c1 (centres undefined),inconclusive: -50.1%
